Results are given in words; binding and its absence hold for the method and conditions named. Some binding calls cover weakened binding; strength is not graded here.
Target: 6xHis-tagged interleukin 1 receptor accessory protein (IL-1RAcP) (UniProt Q9NPH3)
Test: pull-down; IL-1β (20 ng/µl), IL-1RI (100 ng/µl) and 6xHis-tagged IL-1RAcP (40 ng/µl) incubated with or without peptide at various concentrations in 50 µl PBS, 1 h, room temperature; captured on anti-6xHis antibody on Protein G magnetic beads; washed in phosphate buffer pH 7.0; western blot with anti-IL-1β; band intensity relative to the control without peptide; both purified

Protein sequences, listed by entry. Tags and fused reporters are not part of them. Residues count along the entry.
UniProt Q9NPH3, residues 21-367: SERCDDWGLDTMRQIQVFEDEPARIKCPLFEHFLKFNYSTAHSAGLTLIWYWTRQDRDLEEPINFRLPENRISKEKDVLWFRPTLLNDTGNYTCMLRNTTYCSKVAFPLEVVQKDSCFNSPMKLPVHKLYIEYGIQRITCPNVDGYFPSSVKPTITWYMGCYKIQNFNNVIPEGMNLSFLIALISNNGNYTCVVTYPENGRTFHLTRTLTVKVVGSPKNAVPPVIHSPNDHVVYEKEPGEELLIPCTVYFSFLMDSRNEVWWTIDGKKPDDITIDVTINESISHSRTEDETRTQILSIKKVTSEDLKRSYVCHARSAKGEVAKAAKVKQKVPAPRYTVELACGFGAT
UniProt P01584, residues 117-269: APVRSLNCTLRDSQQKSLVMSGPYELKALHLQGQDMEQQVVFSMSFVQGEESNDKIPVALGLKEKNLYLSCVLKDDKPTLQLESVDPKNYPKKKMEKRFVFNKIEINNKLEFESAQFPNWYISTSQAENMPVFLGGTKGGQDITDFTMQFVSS

- binding: binds
Substance: interleukin 1β (IL-1β) (from UniProt P01584 117-269) (ligand)

Reference: PMC7886681, “Characterization and Validation of Arg286 Residue of IL-1RAcP as a Potential Drug Target for Osteoarthritis” (Frontiers in Chemistry, 2021)
